Drawing on patent US20250302977A1, this text covers binding for two molecules.

No constants are given. Whether binding was seen depends on the method and setting. Some results given as binding are weak or reduced against the parent protein; the word gives no strength.

For the experiment, the target named is T1, soluble full-length uPARAP (UniProt Q9UBG0).
T1 sequence (looked up): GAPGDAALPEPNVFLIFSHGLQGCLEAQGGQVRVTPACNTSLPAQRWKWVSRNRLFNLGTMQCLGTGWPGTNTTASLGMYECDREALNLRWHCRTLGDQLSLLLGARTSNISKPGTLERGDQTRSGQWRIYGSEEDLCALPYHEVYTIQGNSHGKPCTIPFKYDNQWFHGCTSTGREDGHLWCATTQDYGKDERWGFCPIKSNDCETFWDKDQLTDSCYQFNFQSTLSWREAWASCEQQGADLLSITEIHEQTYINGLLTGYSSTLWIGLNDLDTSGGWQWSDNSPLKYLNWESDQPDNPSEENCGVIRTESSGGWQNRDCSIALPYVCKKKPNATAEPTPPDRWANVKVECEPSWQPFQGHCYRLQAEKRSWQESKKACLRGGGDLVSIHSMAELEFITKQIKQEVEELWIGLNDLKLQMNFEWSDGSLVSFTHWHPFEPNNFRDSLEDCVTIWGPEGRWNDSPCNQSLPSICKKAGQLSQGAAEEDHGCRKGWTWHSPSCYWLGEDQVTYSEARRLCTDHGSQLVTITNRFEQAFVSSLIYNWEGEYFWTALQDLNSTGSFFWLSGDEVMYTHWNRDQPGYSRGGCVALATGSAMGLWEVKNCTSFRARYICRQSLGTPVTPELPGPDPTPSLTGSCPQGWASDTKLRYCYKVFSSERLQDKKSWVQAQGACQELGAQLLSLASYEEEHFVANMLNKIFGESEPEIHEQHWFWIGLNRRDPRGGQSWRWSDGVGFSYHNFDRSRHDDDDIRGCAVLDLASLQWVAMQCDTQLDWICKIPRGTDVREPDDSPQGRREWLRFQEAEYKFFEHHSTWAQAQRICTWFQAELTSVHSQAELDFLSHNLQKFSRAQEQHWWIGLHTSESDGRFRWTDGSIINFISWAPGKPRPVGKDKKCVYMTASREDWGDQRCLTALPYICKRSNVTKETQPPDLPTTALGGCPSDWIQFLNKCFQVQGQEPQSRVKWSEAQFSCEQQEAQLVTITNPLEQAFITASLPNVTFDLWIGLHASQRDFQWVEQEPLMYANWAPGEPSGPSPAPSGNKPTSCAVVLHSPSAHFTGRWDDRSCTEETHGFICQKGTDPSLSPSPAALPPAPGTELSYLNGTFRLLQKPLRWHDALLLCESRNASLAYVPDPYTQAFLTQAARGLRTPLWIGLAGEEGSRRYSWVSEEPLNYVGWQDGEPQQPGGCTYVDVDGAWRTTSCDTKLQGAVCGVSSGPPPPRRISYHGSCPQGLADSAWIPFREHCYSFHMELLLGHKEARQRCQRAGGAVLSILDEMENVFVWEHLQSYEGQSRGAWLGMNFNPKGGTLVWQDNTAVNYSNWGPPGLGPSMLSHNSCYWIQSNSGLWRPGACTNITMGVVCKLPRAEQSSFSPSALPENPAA
Kind of experiment: SPR, conclusion of Example 1. In general terms: SPR reads the build-up and loss of mass on a sensor chip optically.

B1: humanized 9b7 antibody 980.2 LC4HC3 (antibody, human IgG1, kappa, V domains shown)
VH: QVQLVQSGAEVKKPGASVKVSCKASGYIFIDYGMHWVRQAPGQRLEWMGSINTKSGVSTYAAEFKGRVTIYSDTSASTAYMELSSLRSEDTAVYFCARPPYYSQYGSYWGQGTLVTVSS
VL: EIVMTQSPDSLAVSLGERATINCKASQNVDTYVVWYQQKPGQPPQPLIYSASSRFSGVPDRFSGSGSGTDFTLTISSLQAEDVAIYYCQQYHNSPLTFGGGTKVEIKR
For B1, the binding result is on record as “binds”.

B2: chimeric antibody 980.2 LC0HC0 (antibody, human IgG1, kappa, V domains shown)
VH: QVHLVQSGPELKKPGETVKISCKASGYIFIDYGMHWVKQAPGKGLKWMGSINTKSGVSTYAAEFKGRFAFSLETSASTAYLQINNLKNEDTATYFCARPPYYSQYGSYWGQGTLVTVSA
VL: DIVMTQSQKFMSTSVGDRVSVTCKASQNVDTYVVWYQQKPGQSPKPLIYSASSRFSGVPDRFTGTGSGTDFTLTINNVQSEDLAEYFCQQYHNSPLTFGGGTKLEIKR
As for B2, the binding entry is “binds”.
